Data as given in PubChem BioAssay AID1224830 (NIAID, 2016)
The whole screen tested about 18,000 reagents; below is a part drawn at random. About 2,900 of them (16%) count as active. 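Calls are made per well; low scores hint the gene aids the LPS response, high scores that it dampens it.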 Entries without a mark were called inactive. Repeated entries: four replicate wells of each siRNA pool.

- Test: 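Host factors that control LPS-induced TNF expression in human macrophages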 (primary screen)
- Cell system: human THP-1 monocytic leukaemia cells, TNF dual-luciferase reporter clone, PMA-differentiated to macrophage-like cells
- Reagent: siRNA pool against human genes, 50 nM
- Time to read-out: LPS for 4 h, given about 3 days after siRNA transfection
- Treatment: bacterial LPS (TLR4 ligand), 10 ng/ml
- Detection: 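Ratio of firefly to renilla light, scaled to the plate median and expressed as a robust z-score per replicate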
- Reading the numbers: TNF reporter robust z-score: higher = stronger TNF reporter response to LPS
- Hit rule: 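Each well counts as active if its z-score is over 2.8 or under -1.5; controls are left without a call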

target gene,TNF reporter robust z-score
COL18A1 (GeneID 80781),-0.93
COL18A1 (GeneID 80781),-0.66
COL18A1 (GeneID 80781),-0.81
COL18A1 (GeneID 80781),0.03
NME1-NME2 (GeneID 654364),-0.81
NME1-NME2 (GeneID 654364),-0.72
NME1-NME2 (GeneID 654364),-0.4
NME1-NME2 (GeneID 654364),1.03
PABPN1 (GeneID 8106),1.27
PABPN1 (GeneID 8106),1.45
PABPN1 (GeneID 8106),0.68
PABPN1 (GeneID 8106),1.31
SLC7A7 (GeneID 9056),-1.67 (active)
SLC7A7 (GeneID 9056),-1.25
SLC7A7 (GeneID 9056),-1.43
SLC7A7 (GeneID 9056),-1.34
SLC5A6 (GeneID 8884),0.94
SLC5A6 (GeneID 8884),1.15
SLC5A6 (GeneID 8884),0.76
SLC5A6 (GeneID 8884),0.48
ACAD9 (GeneID 28976),-0.43
ACAD9 (GeneID 28976),-0.71
ACAD9 (GeneID 28976),-0.39
ACAD9 (GeneID 28976),-0.34
PRSS33 (GeneID 260429),-1.41
PRSS33 (GeneID 260429),-0.22
PRSS33 (GeneID 260429),-0.53
PRSS33 (GeneID 260429),-0.1
SRSF2 (GeneID 6427),-1.1
SRSF2 (GeneID 6427),-1
SRSF2 (GeneID 6427),-1.24
SRSF2 (GeneID 6427),-1.09
ARHGEF26 (GeneID 26084),-0.25
ARHGEF26 (GeneID 26084),0.1
ARHGEF26 (GeneID 26084),-0.46
ARHGEF26 (GeneID 26084),1.16
SERPINA3 (GeneID 12),-1.04
SERPINA3 (GeneID 12),-0.64
SERPINA3 (GeneID 12),-0.89
SERPINA3 (GeneID 12),1.73
ANKRD50 (GeneID 57182),0.52
ANKRD50 (GeneID 57182),-0.65
ANKRD50 (GeneID 57182),0.4
ANKRD50 (GeneID 57182),0.77
LRP3 (GeneID 4037),-0.08
LRP3 (GeneID 4037),1.14
LRP3 (GeneID 4037),0.75
LRP3 (GeneID 4037),0.86
USP7 (GeneID 7874),-0.38
USP7 (GeneID 7874),0.51
USP7 (GeneID 7874),-0.23
USP7 (GeneID 7874),-0.39
MRPS14 (GeneID 63931),0.74
MRPS14 (GeneID 63931),0.44
MRPS14 (GeneID 63931),-0.51
MRPS14 (GeneID 63931),-0.24
LINC02870 (GeneID 170393),-1.05
LINC02870 (GeneID 170393),-0.77
LINC02870 (GeneID 170393),-0.95
LINC02870 (GeneID 170393),-1.16
NELFA (GeneID 7469),4.02 (active)
NELFA (GeneID 7469),2.72
NELFA (GeneID 7469),2.53
NELFA (GeneID 7469),3.45 (active)
AQR (GeneID 9716),-0.36
AQR (GeneID 9716),-0.21
AQR (GeneID 9716),-0.82
AQR (GeneID 9716),0.22
TMED7 (GeneID 51014),-0.15
TMED7 (GeneID 51014),0.49
TMED7 (GeneID 51014),-0.33
TMED7 (GeneID 51014),-0.79
ZNF670 (GeneID 93474),-0.21
ZNF670 (GeneID 93474),-0.54
ZNF670 (GeneID 93474),-0.72
ZNF670 (GeneID 93474),-0.04
ATP5MK (GeneID 84833),0.73
ATP5MK (GeneID 84833),0.33
ATP5MK (GeneID 84833),-0.04
ATP5MK (GeneID 84833),1.2
UBE3C (GeneID 9690),0.66
UBE3C (GeneID 9690),0.34
UBE3C (GeneID 9690),-0.01
UBE3C (GeneID 9690),0.11
TCF21 (GeneID 6943),-0.45
TCF21 (GeneID 6943),-0.19
TCF21 (GeneID 6943),0.09
TCF21 (GeneID 6943),0.04
NDRG2 (GeneID 57447),0.82
NDRG2 (GeneID 57447),1.56
NDRG2 (GeneID 57447),2.96 (active)
NDRG2 (GeneID 57447),0.75
AGTPBP1 (GeneID 23287),0.56
AGTPBP1 (GeneID 23287),0.64
AGTPBP1 (GeneID 23287),0.34
AGTPBP1 (GeneID 23287),1.43
SPIB (GeneID 6689),-0.26
SPIB (GeneID 6689),-0.5
SPIB (GeneID 6689),-0.16
SPIB (GeneID 6689),-0.21
DNM1 (GeneID 1759),-0.58
DNM1 (GeneID 1759),-1.07
DNM1 (GeneID 1759),-0.7
DNM1 (GeneID 1759),-0.61
C9orf163 (GeneID 158055),5.29 (active)
C9orf163 (GeneID 158055),5.6 (active)
C9orf163 (GeneID 158055),5.45 (active)
C9orf163 (GeneID 158055),7.4 (active)
CEP95 (GeneID 90799),2.12
CEP95 (GeneID 90799),0.89
CEP95 (GeneID 90799),1.7
CEP95 (GeneID 90799),1.38

14 successive records already listed, quoted:
target gene,TNF reporter robust z-score
AQR (GeneID 9716),-0.82
AQR (GeneID 9716),0.22
TMED7 (GeneID 51014),-0.15
TMED7 (GeneID 51014),0.49
TMED7 (GeneID 51014),-0.33
TMED7 (GeneID 51014),-0.79
ZNF670 (GeneID 93474),-0.21
ZNF670 (GeneID 93474),-0.54
ZNF670 (GeneID 93474),-0.72
ZNF670 (GeneID 93474),-0.04
ATP5MK (GeneID 84833),0.73
ATP5MK (GeneID 84833),0.33
ATP5MK (GeneID 84833),-0.04
ATP5MK (GeneID 84833),1.2
